Assay results taken from paper PMC7300657 (EMBO Molecular Medicine, 2020).

Protein sequences, listed by entry. Tags and fused reporters are not part of them.
UniProt O75716, whole entry: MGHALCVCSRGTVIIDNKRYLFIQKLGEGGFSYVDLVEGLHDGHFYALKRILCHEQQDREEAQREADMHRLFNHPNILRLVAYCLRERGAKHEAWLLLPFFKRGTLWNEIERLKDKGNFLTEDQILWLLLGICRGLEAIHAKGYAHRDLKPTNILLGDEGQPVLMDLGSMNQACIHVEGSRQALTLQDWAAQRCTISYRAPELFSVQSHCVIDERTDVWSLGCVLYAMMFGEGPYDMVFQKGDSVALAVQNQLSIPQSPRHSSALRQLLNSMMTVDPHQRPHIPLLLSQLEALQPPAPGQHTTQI

Legend:
STK16 = STK16 (Homo sapiens, UniProt O75716); test: biochemical; type: binding
cytochrome P450 = conditions: ref Eli Lilly and Company, 2019; cited from earlier work

Q: What does the source list for `CCS(=O)(=O)N1CC(CC#N)(n2cc(-c3ncnc4[nH]ccc34)cn2)C1` [Baricitinib]?
A: Kd (STK16): 1.1 µM; cytochrome P450 inhibitory activity (cytochrome P450): low
